# Values of other authors as cited in patent US20250283177A1, “BIOMARKERS AND METHODS OF USE THEREOF FOR TREATMENT OF PERIPHERAL T-CELL LYMPHOMA” (BOARD OF REGENTS OF THE UNIVERSITY OF NEBRASKA, priority 2022, published 2025).
# Like-named read-outs stand apart in the source and are kept apart here. At least one structure is not confirmed: it was looked up by name or label, or the drawing left a doubt.
# Tested on: peripheral T-cell lymphoma (PTCL)
# Conditions: Phase II studies
compound,measurement,setting,value
C/C=C1\NC(=O)[C@H]2CSSCC/C=C/[C@H](CC(=O)N[C@H](C(C)C)C(=O)N2)OC(=O)[C@H](C(C)C)NC1=O [Romidepsin],Overall response rate by common subtype,subtype AITL,30%
same,Overall response rate by common subtype,subtype ALCL,24%
same,Overall response rate by common subtype,subtype PTCL-NOS,29%
